{"sequences": {"note": "Protein sequences, listed by entry. Tags and fused reporters are not part of them.", "UniProt Q15858, whole entry": "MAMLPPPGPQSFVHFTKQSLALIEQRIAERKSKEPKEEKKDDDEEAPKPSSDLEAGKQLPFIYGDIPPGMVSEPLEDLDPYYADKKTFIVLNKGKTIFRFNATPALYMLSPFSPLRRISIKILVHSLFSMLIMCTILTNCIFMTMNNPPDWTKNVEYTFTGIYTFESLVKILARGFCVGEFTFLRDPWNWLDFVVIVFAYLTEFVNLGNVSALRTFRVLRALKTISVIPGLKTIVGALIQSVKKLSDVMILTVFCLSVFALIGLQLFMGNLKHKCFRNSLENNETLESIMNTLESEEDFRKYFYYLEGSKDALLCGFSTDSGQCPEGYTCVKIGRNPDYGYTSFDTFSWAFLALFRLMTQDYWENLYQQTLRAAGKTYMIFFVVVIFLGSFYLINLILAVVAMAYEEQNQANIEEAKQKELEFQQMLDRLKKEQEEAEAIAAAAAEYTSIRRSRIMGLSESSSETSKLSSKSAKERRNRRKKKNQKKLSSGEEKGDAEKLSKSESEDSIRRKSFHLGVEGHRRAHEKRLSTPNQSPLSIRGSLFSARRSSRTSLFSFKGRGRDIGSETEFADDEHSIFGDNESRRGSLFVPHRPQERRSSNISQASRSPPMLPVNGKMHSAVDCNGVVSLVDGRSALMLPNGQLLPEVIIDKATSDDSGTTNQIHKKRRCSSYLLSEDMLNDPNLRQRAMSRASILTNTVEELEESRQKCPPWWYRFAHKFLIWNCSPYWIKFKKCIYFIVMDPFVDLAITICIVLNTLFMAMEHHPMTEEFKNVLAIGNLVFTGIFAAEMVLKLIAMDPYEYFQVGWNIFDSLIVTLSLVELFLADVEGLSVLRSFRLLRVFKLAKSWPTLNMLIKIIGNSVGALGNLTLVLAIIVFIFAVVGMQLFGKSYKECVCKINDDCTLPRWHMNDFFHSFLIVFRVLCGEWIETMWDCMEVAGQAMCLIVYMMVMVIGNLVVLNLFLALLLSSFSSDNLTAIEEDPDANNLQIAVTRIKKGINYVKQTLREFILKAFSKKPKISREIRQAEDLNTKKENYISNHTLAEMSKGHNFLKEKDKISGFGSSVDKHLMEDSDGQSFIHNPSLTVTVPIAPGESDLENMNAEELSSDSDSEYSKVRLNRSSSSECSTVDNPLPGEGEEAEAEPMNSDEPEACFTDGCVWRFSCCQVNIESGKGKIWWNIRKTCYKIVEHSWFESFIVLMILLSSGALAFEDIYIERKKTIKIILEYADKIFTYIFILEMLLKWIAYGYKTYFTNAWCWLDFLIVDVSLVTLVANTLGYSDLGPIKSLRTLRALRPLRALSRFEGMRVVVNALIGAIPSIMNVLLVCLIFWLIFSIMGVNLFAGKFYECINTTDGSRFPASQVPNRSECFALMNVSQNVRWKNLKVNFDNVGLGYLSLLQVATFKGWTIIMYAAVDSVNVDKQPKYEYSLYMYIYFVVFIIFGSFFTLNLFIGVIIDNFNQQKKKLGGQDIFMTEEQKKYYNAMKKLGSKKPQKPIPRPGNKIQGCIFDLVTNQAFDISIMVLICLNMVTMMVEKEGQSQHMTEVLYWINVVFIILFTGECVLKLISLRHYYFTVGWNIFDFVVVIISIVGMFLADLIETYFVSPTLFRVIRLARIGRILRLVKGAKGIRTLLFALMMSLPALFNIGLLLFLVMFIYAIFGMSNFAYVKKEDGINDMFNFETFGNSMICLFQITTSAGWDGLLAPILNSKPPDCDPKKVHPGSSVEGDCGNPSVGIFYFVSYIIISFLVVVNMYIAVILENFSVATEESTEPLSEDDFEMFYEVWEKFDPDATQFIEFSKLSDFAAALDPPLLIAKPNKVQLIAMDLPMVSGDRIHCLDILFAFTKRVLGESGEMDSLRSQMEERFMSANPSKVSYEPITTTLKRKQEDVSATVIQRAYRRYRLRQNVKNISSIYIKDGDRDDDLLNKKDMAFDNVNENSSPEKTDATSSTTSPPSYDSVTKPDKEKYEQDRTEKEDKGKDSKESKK"}, "source": "patent US20230115611A1", "about": "“TREATMENT OF PAIN AND VASOCONSTRICTION” (Aisa Pharma, Inc., priority 2020, published 2023)", "target": "T1, human Nav 1.7 (Homo sapiens, UniProt Q15858)", "T1 construct": "expressed in transfected cells", "assay": "Nav 1.7 sodium channel inhibition, automated patch clamp (QPATCH II), two pulse voltage protocol", "type": "cell-based", "details": "CHO cells, compound at/around Cmax concentration as in Table 4", "experimental": "Chinese Hamster Ovary (CHO) cells stably expressing human Nav 1.7 were cultured according to the manufacturer's standard operating procedure (SOP) and enzymatically lifted into solution following Sophion's standard SOP.\nVoltage protocol 1 (VP1): A voltage protocol designed to generate a current voltage relationship and to estimate the half inactivation potential (V1/2) was used. The first voltage protocol was used as quality control and the latter was used later in the experiment (see below).\nVoltage protocol 2 (VP2): Two pulse voltage protocol. FIG. 2 depicts a two pulse voltage protocol. The line marked with an asterisk indicates the voltage that was applied to the cell. In the beginning, all channels were in the closed state (V=−120 mV). A depolarization step to V=10 mV (P1) activated all channels and produced the largest possible current. Next, cells were kept at the V1/2 value for 1 s. […] A second stimulation to V=−10 mV activated all channels that were in the closed state (50%). Compound effects were assessed at both P1 and P2. State dependent compounds will show a different degree of inhibition at the two different pulses. This protocol was repeated every 10 s to monitor compound effects on the channel.", "data": [{"compound": "COC(=O)C1=C(C)NC(C)=C(C(=O)OC)C1c1ccccc1[N+](=O)[O-]", "note": "[nifedipine]", "values": [{"measurement": "Mean % inhibition-closed state", "setting": "closed state (P1) of Nav 1.7", "value": "−2.2", "unit": "%"}, {"measurement": "Mean % inhibition-inactivated state", "setting": "inactivated state (P2) of Nav 1.7", "value": 37.5, "unit": "%"}]}]}
